The test system of the assay is HEK293A TEAD-LUC reporter. Briefly: TEAD-luciferase reporter activity (YAP activation), robust Z score vs plate; higher = stronger YAP/TEAD activation. The conditions noted are these: 24 h.

This passage reports TEAD-luciferase reporter activity results from the supplement of paper PMC10735217.

“And” between values parts separate entries of the source, which are not always exact repeats. Equal values may be shown once. Where a name gives a salt, the structure may show the parent alone. The list shows a part of the results. Repeats in this data set agree poorly, so a single value says little.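 Human kidney-derived cells stably carry a construct in which eight TEAD-binding elements drive luciferase, measured by luminescence in a drug-repurposing library screen. A hit is any compound whose signal exceeds the plate mean by more than five robust Z scores.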

On to `COc1ccc(CN(CCN(C)C)c2ccccn2)cc1` [Mepyramine Maleate], for which the TEAD-luciferase reporter activity (compound concentration: 200 nM) is inactive: -1.55, the TEAD-luciferase reporter activity (compound concentration: 2 uM) is active: 5.14 and the TEAD-luciferase reporter activity (compound concentration: 10 uM) is inactive: 2.58.

With `COC(=O)C[C@H]1C(=O)N(CC(=O)O)CCN1C(=O)CNC(=O)c1ccc(C(=N)N)cc1`, the TEAD-luciferase reporter activity (compound concentration: 200 nM) is inactive: 0.111, the TEAD-luciferase reporter activity (compound concentration: 2 uM) is inactive: -0.464 and the TEAD-luciferase reporter activity (compound concentration: 10 uM) is inactive: 3.37.

For the molecule `Cc1ccc(CCCO)c(NCc2ccc3nc(NCCCN4CCOCC4)n(Cc4nc(C)ccc4O)c3c2)c1`, the TEAD-luciferase reporter activity by setting is: (compound concentration: 200 nM) inactive: 0.148; (compound concentration: 2 uM) inactive: -1.37; (compound concentration: 10 uM) inactive: 1.56.

With `CCCOCCOC(=O)C1=C(C)NC(C)=C(C(=O)OCCOCCC)C1c1cccc([N+](=O)[O-])c1`, the TEAD-luciferase reporter activity reads like this: (compound concentration: 200 nM) inactive: 0.11; (compound concentration: 2 uM) inactive: -1.49; (compound concentration: 10 uM) inactive: -1.45.

Take `CS(=O)(=O)c1ccc(-n2cc(Cl)c(OC3CCN(c4ncc(Cl)cn4)CC3)cc2=O)c(F)c1`: the TEAD-luciferase reporter activity (compound concentration: 200 nM) is inactive: -0.696, the TEAD-luciferase reporter activity (compound concentration: 2 uM) is inactive: -1.4 and the TEAD-luciferase reporter activity (compound concentration: 10 uM) is inactive: -0.747.

As for `Cc1ccc2c(c1)C=Cc1cc(C)ccc1C2c1cn(Cc2ccc(C(=O)Nc3nnn[nH]3)o2)c(=O)[nH]c1=S`, the TEAD-luciferase reporter activity was inactive: 0.119 (compound concentration: 200 nM), inactive: -0.0832 (compound concentration: 2 uM) and inactive: 0.664 (compound concentration: 10 uM).

Take `O=C(c1ccc(Cl)cc1)N1CCC(N2CCCC2)CC1`: the TEAD-luciferase reporter activity by setting is: (compound concentration: 200 nM) inactive: 3.36; (compound concentration: 10 uM) inactive: 4.91.

As to `CC(C)OC(=O)[C@H](C)N[P@](=O)(OC[C@H]1O[C@@H](n2ccc(=O)[nH]c2=O)[C@](C)(Cl)[C@@H]1O)Oc1ccccc1` [Sofosbuvir impurity K], the TEAD-luciferase reporter activity (compound concentration: 200 nM) was inactive: -0.888, the TEAD-luciferase reporter activity (compound concentration: 2 uM) was inactive: -1.29 and the TEAD-luciferase reporter activity (compound concentration: 10 uM) was inactive: 1.56.

On to `OCCOCCN1CCN(C(c2ccccc2)c2ccc(Cl)cc2)CC1` (configuration not stated) [Hydroxyzine hydrochloride], for which, for the setting “compound concentration: 2 uM”, the TEAD-luciferase reporter activity is inactive: -1.64.

On to `OCCOCCN1CCN(C(c2ccccc2)c2ccc(Cl)cc2)CC1` (configuration not stated), for which the TEAD-luciferase reporter activity is, setting by setting: (compound concentration: 200 nM) inactive: -1.6; (compound concentration: 10 uM) inactive: 0.97.

For the molecule `O=C(O)CCc1cc(C(=O)c2ccc(OC3CCCC3)cc2O)ccc1OCc1ccc2c(O)noc2c1`, the TEAD-luciferase reporter activity by setting is: (compound concentration: 200 nM) inactive: -1.69; (compound concentration: 2 uM) inactive: -1.6; (compound concentration: 10 uM) inactive: 2.57.

With `CC(C)CN(C[C@@H](O)[C@H](Cc1ccccc1)NC(=O)[C@@H](NC(=O)CNCc1cccc(F)c1)C(C)(C)C)S(=O)(=O)c1ccc(N)cc1`, the TEAD-luciferase reporter activity is inactive: 0.379 (compound concentration: 200 nM), inactive: -0.955 (compound concentration: 2 uM) and inactive: -1.6 (compound concentration: 10 uM).

With `C[C@H]1COC2(CCN(c3nc(=O)c4cc(C(F)(F)F)cc([N+](=O)[O-])c4s3)CC2)O1` [Stuart Cole cmpd], the TEAD-luciferase reporter activity reads like this: (compound concentration: 200 nM) inactive: -1.78; (compound concentration: 10 uM) inactive: -1.44.

Turning to `C[C@H]1COC2(CCN(c3nc(=O)c4cc(C(F)(F)F)cc([N+](=O)[O-])c4s3)CC2)O1`, the TEAD-luciferase reporter activity (compound concentration: 2 uM) was inactive: -1.5 and inactive: -1.68.

In the case of `Clc1ccc(Cn2c(CN3CCCC3)nc3ccccc32)cc1`, the TEAD-luciferase reporter activity runs as follows: (compound concentration: 200 nM) inactive: -0.934; (compound concentration: 10 uM) inactive: 3.46.

In the case of `COC(=O)Cn1c(-c2cccc(Cl)c2)nc2ccc(OCCCN3CCCCC3)cc2c1=O`, the TEAD-luciferase reporter activity by setting is: (compound concentration: 200 nM) inactive: -2.06; (compound concentration: 2 uM) inactive: -0.588; (compound concentration: 10 uM) inactive: 0.765.

With `COc1cc2nc(N3CCN(C(=O)C4CCCCC4)CC3)nc(N)c2cc1OC`, the TEAD-luciferase reporter activity by setting is: (compound concentration: 200 nM) inactive: 0.151; (compound concentration: 2 uM) inactive: 0.49; (compound concentration: 10 uM) inactive: 0.949.

`NC(=O)Cc1cccc(C(=O)c2ccccc2)c1N` [Nepafenac]: the TEAD-luciferase reporter activity runs as follows: (compound concentration: 200 nM) inactive: -1.87; (compound concentration: 2 uM) inactive: -1.28; (compound concentration: 10 uM) inactive: -0.15.

`Cc1[nH]c2ccc(F)cc2c1-c1nc2c3cccnc3c3ncccc3c2[nH]1`: the TEAD-luciferase reporter activity is inactive: -2.33 (compound concentration: 200 nM), inactive: -1.96 (compound concentration: 2 uM) and inactive: -0.86 (compound concentration: 10 uM).

In the case of `Cc1ccc(C)c(Cn2cc(CCNc3ncnc4c3ncn4[C@@H]3O[C@H](C(=O)NC4CC4)[C@@H](O)[C@H]3O)c3cc(C)ccc32)c1`, the TEAD-luciferase reporter activity is inactive: -0.896 (compound concentration: 200 nM), inactive: -0.403 (compound concentration: 2 uM) and inactive: 1.33 (compound concentration: 10 uM).

Turning to `CCNC(=O)N1CCN(CCCC(c2ccc(F)cc2)c2ccc(F)cc2)CC1` [Amperozide], the TEAD-luciferase reporter activity by setting is: (compound concentration: 200 nM) inactive: 0.227; (compound concentration: 2 uM) inactive: 2.1; (compound concentration: 10 uM) inactive: -1.12.

As for `CC1/C=C/C=C\C=C\C=C\C=C\C=C\C=C\C(OC2OC(C)C(O)C(N)C2O)CC2OC(O)(CC(O)CC(O)C(O)CCC(O)CC(O)CC(=O)OC(C)C(C)C1O)CC(O)C2C(=O)O` (configuration not stated) [amphotericin-B], the TEAD-luciferase reporter activity is inactive: 1.08 (compound concentration: 200 nM), inactive: 0.316 (compound concentration: 2 uM) and inactive: -0.828 (compound concentration: 10 uM).

For the molecule `CCSCC(=O)C12OC(C)(C)O[C@@H]1C[C@H]1[C@@H]3C[C@H](F)C4=CC(=O)C=CC4(C)[C@@]3(F)[C@@H](O)CC12C` (some centres not stated), the TEAD-luciferase reporter activity runs as follows: (compound concentration: 200 nM) inactive: -1.57; (compound concentration: 2 uM) active: 5.27; (compound concentration: 10 uM) inactive: 0.7.

With `Oc1c(I)cc(I)c2cccnc12` [Iodoquinol], the TEAD-luciferase reporter activity is, setting by setting: (compound concentration: 200 nM) inactive: -0.677; (compound concentration: 2 uM) inactive: -1.92; (compound concentration: 10 uM) inactive: 1.87.

On to `CCC(C)n1ncn(-c2ccc(N3CCN(c4ccc(OC[C@@H]5CO[C@@](Cn6cncn6)(c6ccc(Cl)cc6Cl)O5)cc4)CC3)cc2)c1=O` (some centres not stated) [Sporanox (Itraconazole)], for which the TEAD-luciferase reporter activity was inactive: -1.68 (compound concentration: 200 nM) and inactive: -0.235 (compound concentration: 10 uM).

Consider `CCC(C)n1ncn(-c2ccc(N3CCN(c4ccc(OC[C@@H]5CO[C@@](Cn6cncn6)(c6ccc(Cl)cc6Cl)O5)cc4)CC3)cc2)c1=O` (some centres not stated) [itraconazole], for which the TEAD-luciferase reporter activity (compound concentration: 2 uM) was inactive: -1.2.
